Assay results as given in PubChem BioAssay AID1671190 (National Center for Advancing Translational Sciences (NCATS), 2021).
Values joined by “and” are separate entries in the source; they are usually repeats but may differ in a detail not shown here. Equal values may be shown once. The whole screen tested about 580,000 compounds, of which about 6,100 (1.1%) were called active. Inconclusive means that the source gave no clear call. Such entries were picked first, then a sample of the others. Calls follow the shape of the dose curve; as a rule, active = well fitted inhibition curve with a large enough effect; inconclusive = small, poorly fitted or top-dose-only effect, or another doubt; inactive = no such curve, though single readings can be large or run the other way. A potency beside an inconclusive call is a rough fit, not a confirmed value.
Potency is read from the fitted curve at half-maximal effect.

By UniProt entry, the sequences of proteins in these tests, tags left out. Where a name states a change or a piece, a line headed by the entry shows the natural chain unless it says otherwise.
UniProt P18054: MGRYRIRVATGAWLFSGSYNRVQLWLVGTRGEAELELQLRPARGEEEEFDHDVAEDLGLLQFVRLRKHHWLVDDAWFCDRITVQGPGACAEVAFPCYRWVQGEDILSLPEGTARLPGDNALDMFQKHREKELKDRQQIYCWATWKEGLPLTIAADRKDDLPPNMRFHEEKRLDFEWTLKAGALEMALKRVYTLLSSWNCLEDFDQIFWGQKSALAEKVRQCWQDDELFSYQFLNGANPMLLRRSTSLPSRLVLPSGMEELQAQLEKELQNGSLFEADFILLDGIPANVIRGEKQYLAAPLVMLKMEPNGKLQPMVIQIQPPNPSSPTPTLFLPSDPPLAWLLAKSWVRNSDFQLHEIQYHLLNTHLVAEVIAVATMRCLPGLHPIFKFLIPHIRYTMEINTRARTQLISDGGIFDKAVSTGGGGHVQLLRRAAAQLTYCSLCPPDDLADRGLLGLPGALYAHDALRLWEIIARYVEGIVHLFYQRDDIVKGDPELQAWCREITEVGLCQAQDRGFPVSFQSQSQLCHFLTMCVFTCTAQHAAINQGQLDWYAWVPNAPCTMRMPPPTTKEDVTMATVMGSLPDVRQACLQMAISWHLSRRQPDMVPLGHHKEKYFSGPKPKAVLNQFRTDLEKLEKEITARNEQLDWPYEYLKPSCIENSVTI

What follows are compounds tested against Polyunsaturated fatty acid lipoxygenase ALOX12 (Homo sapiens) (UniProt P18054) (assay: Primary qHTS assay for inhibitors of human arachidonate 12S-lipoxygenase (ALOX12): Round 2). Conditions: purified 12hLO, xylenol orange hydroperoxide absorbance; series mostly up to 108 µM.
Outline: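 Purified human 12hLO at 150 nM in 25 mM Hepes, 0.01% Triton X-100, pH 7.0, preincubated 15 min at room temperature with compound. Reaction started with 40 uM arachidonic acid, 30 min at room temperature. Hydroperoxide measured by Fe-xylenol orange, 573/405 nm absorbance ratio.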
In the case of Cc1sc2ncn(CC(=O)NC3CCCc4ccccc43)c(=O)c2c1-c1ccccc1 (stereo not drawn), the Potency is reported as inconclusive: 0.251 µM [inhibitor, full curve, poor fit].
With Cc1ccc(NS(=O)(=O)c2cc(-c3cc(C)no3)ccc2C)c(Cl)c1 the Potency was inconclusive: 89.1 µM [inhibitor, partial curve, poor fit].
O=C(NCC(c1cccs1)N1CCCCC1)c1cc2ccccc2oc1=O (stereo not drawn) was tested, and the Potency was inconclusive: 44.7 µM [inhibitor, partial curve].
In the case of CC(=O)c1ccc(NC(=O)C2CC3CCCC(C2)C3=O)cc1 (stereo not drawn), the Potency is reported as inconclusive: 100 µM [inhibitor, single point].
In the case of COc1ccccc1SC(C)C(=O)NC(C)(C)C (stereo not drawn), the Potency is reported as inconclusive: 31.6 µM [inhibitor, partial curve, poor fit].
For Clc1cccc(Cc2c(C3CCCCC3)nc3ccc(Br)cn23)c1, the Potency was inconclusive: 100 µM [inhibitor, single point].
In the case of O=C(NCc1ccccc1)C(c1ccc(F)cc1)N(Cc1cccs1)C(=O)c1cnccn1 (stereo not drawn), the Potency is reported as “inactive”.
With Cn1nc(C(=O)OCC(=O)c2ccc(Br)cc2)c2ccccc2c1=O the Potency was inconclusive: 50.1 µM [inhibitor, single point] and inconclusive: 158 µM [inhibitor, single point].
In the case of C=CC[C@@H](CC(=O)N(CCO)Cc1ccccc1)C(=O)NC[C@H](OC(=O)[C@@H](CC=C)CC(=O)OC(C)(C)C)c1ccccc1, the Potency is reported as “inactive”.
For S=C(NC1CCCCC1)NC12CC3CC(CC(C3)C1)C2, the Potency was inconclusive: 39.8 µM [inhibitor, partial curve, poor fit].
With CN1CCC(C(=O)C(=O)O)C1=O (stereo not drawn) the Potency was inconclusive: 44.7 µM [inhibitor, partial curve, poor fit].
With O=C(O)COc1cccc(NS(=O)(=O)c2ccc(Br)cc2)c1 the Potency was inconclusive: 79.4 µM [inhibitor, partial curve, poor fit].
For O=C(NC1CCCCC1)C1CC(c2ccc(F)cc2)=NO1 (stereo not drawn), the Potency was inconclusive: 0.562 µM [inhibitor, full curve, poor fit].
For CCCN(CCO)Cc1cccc(Br)c1, the Potency was inconclusive: 0.398 µM [inhibitor, full curve, poor fit].
For C=CCn1c(=O)/c(=C\c2ccccn2)s/c1=C(/C#N)C(=O)NCC1CCCO1 (stereo not drawn), the Potency was “inactive”.
In the case of CCCCOc1ccc(C(=O)Nc2ccc(N3CCN(C(C)=O)CC3)cc2)cc1, the Potency is reported as inconclusive: 44.7 µM [inhibitor, partial curve].
With COc1cccc(C2=Cc3ccc(F)cc3C(CC(C)=O)N2c2ccc(-c3cc(OC)c(OC)c(OC)c3)cc2)c1 (stereo not drawn) the Potency was “inactive”.
For O=S(=O)(c1ccc2nc(Nc3ccccc3)ccc2c1)N1CCCCC1, the Potency was inconclusive: 89.1 µM [inhibitor, single point].
With O=C(CCl)NC(C(=O)O)(c1ccccc1)c1ccccc1 the Potency was inconclusive: 5.01 µM [inhibitor, full curve].
With O=C(CN1CCOC1=O)N1CCC2(CCC(=O)N(CCCn3ccnc3)C2)CC1 the Potency was inconclusive: 6.31 µM [inhibitor, full curve, poor fit].
NC(=S)c1ccc(OCCCc2ccccc2)cc1 was tested, and the Potency was inconclusive: 35.5 µM [inhibitor, partial curve, poor fit].
In the case of Cc1cc(=O)n2[nH]c(NCc3ccccc3)nc2n1, the Potency is reported as inconclusive: 39.8 µM [inhibitor, partial curve, poor fit].
CC(NC(=O)C1CCN(c2ccc(C#N)cn2)CC1)c1ccc(F)cc1 (stereo not drawn) was tested, and the Potency was inconclusive: 39.8 µM [inhibitor, partial curve, poor fit].
With O=C1CCC[C@H]2[C@@H](Cc3ccccc3)[C@@H](NS(=O)(=O)c3ccc(-c4ccccc4)cc3)CC[C@]23CCCN13 the Potency was inconclusive: 56.2 µM [inhibitor, partial curve, poor fit].
In the case of CC(C)(C)C(=O)COC(=O)C1(S(=O)(=O)c2ccc(Br)cc2)CCCC1, the Potency is reported as “inactive”.
For CN(C)c1ccc(NC(=O)Cn2nnc3sc4c(c3c2=O)CCC(C(C)(C)C)C4)cc1 (stereo not drawn), the Potency was inconclusive: 126 µM [inhibitor, partial curve, poor fit].
In the case of CC(C)(C)OC(=O)CNC(=O)c1[nH]cnc1C(=O)NC1CCN(C(=O)OC(C)(C)C)CC1, the Potency is reported as “inactive”.
In the case of O=C(O)Cn1ccc2cc(OCCc3cccc(-c4ccc(Cl)cc4)c3)cnc21, the Potency is reported as active: 44.7 µM.
With CCc1nnc(NC(=O)c2ccc(S(=O)(=O)N3CCCC3)cc2)s1 the Potency was inconclusive: 0.224 µM [inhibitor, full curve, poor fit].
For CN(CCc1ccncc1)C(=O)CCc1ccnc(N2CCCC2)c1, the Potency was inconclusive: 15.8 µM [inhibitor, partial curve, poor fit].
O=C(C(c1ccccc1)c1ccccc1)N1CCN(Cc2ccc(Br)cc2)CC1 was tested, and the Potency was inconclusive: 44.7 µM [inhibitor, partial curve, poor fit].
O=C(Cc1ccccc1Cl)N1CCC(c2nc3c(nnn3Cc3ccccc3)c(=O)[nH]2)CC1 was tested, and the Potency was inconclusive: 56.2 µM [inhibitor, single point].
With CN1CCCC1CCNc1ccc2sc3ccccc3c(=O)c2c1 (stereo not drawn) the Potency was inconclusive: 31.6 µM [inhibitor, partial curve, poor fit].
CC(CC(=O)Nc1ccc(F)cc1)S(=O)(=O)c1ccc2c(c1)CCN2C(=O)C1CC1 (stereo not drawn) was tested, and the Potency was “inactive”.
In the case of CC(C)c1noc(-c2cn(C3CCN(C(=O)c4ccc(C#N)cc4)CC3)nn2)n1, the Potency is reported as “inactive”.
For COc1ccc2c(c1)-c1nc(NC(=O)c3ccc(Cl)cc3)sc1CC2, the Potency was inconclusive: 89.1 µM [inhibitor, partial curve, poor fit].
In the case of CCOC(=O)C1=C(C)NC(SCC(=O)Nc2nc(C)cs2)=C(C#N)C1c1cccs1 (stereo not drawn), the Potency is reported as inconclusive: 28.2 µM [inhibitor, single point].
CC1CCC(NC(=O)c2cc(C3CC3)nn2-c2ccccc2)CC1 (stereo not drawn) was tested, and the Potency was inconclusive: 112 µM [inhibitor, single point].
For CCN1CCN(S(=O)(=O)c2ccc(Cl)c(C(=O)NC(C)(C)C)c2)CC1, the Potency was inconclusive: 141 µM [inhibitor, partial curve, poor fit].
In the case of Cc1ccc(-c2nc3ccc(C)cn3c2Cc2ccccc2C(F)(F)F)cc1, the Potency is reported as inconclusive: 79.4 µM [inhibitor, single point].
For Cn1c(=O)c2c(nc(NCCc3ccccc3)n2CC(O)CO)n(C)c1=O (stereo not drawn), the Potency was inconclusive: 141 µM [inhibitor, single point].
For O=C(Nc1ccc(N2CCOCC2)cc1)c1cc2c(s1)CCCC2, the Potency was inconclusive: 79.4 µM [inhibitor, partial curve, poor fit].
With CCn1ccnc1CN1CCc2c([nH]c3ccccc23)C1C(C)(C)C (stereo not drawn) the Potency was “inactive”.
CCCCC1=CC2=CC(=O)C(C)(OC(=O)CCc3ccccc3)C(=O)C2=CO1 (stereo not drawn) was tested, and the Potency was active: 12.6 µM.
CC(C)CNC(=O)N1CC(Oc2ccccc2-c2nc(-c3ccccc3)no2)C1 was tested, and the Potency was inconclusive: 50.1 µM [inhibitor, partial curve].
COC(=O)C1=C(C)N(Cc2cccc(C(F)(F)F)c2)C(=NCc2cc(OC)c(OC)c(OC)c2)NC1c1cccc(F)c1 (stereo not drawn) was tested, and the Potency was inconclusive: 112 µM [inhibitor, single point].
N=C(N)CCl was tested, and the Potency was inconclusive: 12.6 µM [inhibitor, full curve, poor fit].
With O=C(c1cc(-c2ccccc2)n[nH]1)N1CCN(C(=O)c2ccc(Br)o2)CC1 the Potency was inconclusive: 39.8 µM [inhibitor, single point].
In the case of CCN1CCN(c2cc(C)c3cc(NC(=S)N4CC(C)CC(C)C4)ccc3n2)CC1 (stereo not drawn), the Potency is reported as inconclusive: 112 µM [inhibitor, single point].
With O=C(Nc1ccccc1Cc1ccccc1)C1CC(=O)N(c2ccc3c(c2)OCCO3)C1 (stereo not drawn) the Potency was inconclusive: 89.1 µM [inhibitor, single point].
O=c1oc2ccccc2c(NC2CCCC2)c1NS(=O)(=O)c1ccc(Cl)cc1 was tested, and the Potency was inconclusive: 141 µM [inhibitor, single point].
Cc1ccc(CNc2oc(-c3ccccc3F)nc2C#N)cc1 was tested, and the Potency was inconclusive: 31.6 µM [inhibitor, partial curve, poor fit].
For O=C(O)/C(=C\c1ccc2ccccc2c1)c1cccc2ccccc12, the Potency was inconclusive: 70.8 µM [inhibitor, partial curve, poor fit].
For O=C(CSc1ncnc2c1sc1cccc(F)c12)NCCN1CCN(Cc2ccccc2)CC1, the Potency was “inactive”.
With Cc1ccc(N(CC(=O)N/N=C/c2ccco2)S(=O)(=O)c2ccccc2)cc1 the Potency was inconclusive: 39.8 µM [inhibitor, partial curve, poor fit].
For CC(C)CC(NC(=O)COc1cccc2ccccc12)C(=O)O (stereo not drawn), the Potency was inconclusive: 112 µM [inhibitor, partial curve, poor fit].
CN1CCN(CC(=O)Nc2cc(N(C)C)nc3ccccc23)CC1 was tested, and the Potency was “inactive”.
With O=C(c1ccccc1)N1CCCC(C(=O)N2CCCCCC2)C1 (stereo not drawn) the Potency was “inactive”.
For Cc1cc(S(=O)(=O)N2CCOCC2)ccc1OCC(=O)Nc1ccc(F)cc1, the Potency was “inactive”.
COc1ccc(C)cc1-n1nnnc1SCC(=O)NC1CC1 was tested, and the Potency was inconclusive: 126 µM [inhibitor, single point].
In the case of Cc1nnc(NC(=O)CSc2nc3[nH]ncc3c(=O)[nH]2)s1, the Potency is reported as “inactive”.
With N#Cc1cccc(-c2cncnc2NCc2cccs2)c1 the Potency was inconclusive: 2.82 µM [inhibitor, full curve, poor fit].
For O=C1[C@H](Cc2ccccc2)NCC=CC[C@H](c2ccco2)N1Cc1ccccc1, the Potency was inconclusive: 44.7 µM [inhibitor, partial curve, poor fit].
